Source: PMC7819943, “Rice protein-binding microarrays: a tool to detect cis-acting elements near promoter regions in rice”
The other results are listed elsewhere or left out.

Amino acid sequences for entries named in this document (tags omitted).
UniProt Q0JBA9, entry or part of it: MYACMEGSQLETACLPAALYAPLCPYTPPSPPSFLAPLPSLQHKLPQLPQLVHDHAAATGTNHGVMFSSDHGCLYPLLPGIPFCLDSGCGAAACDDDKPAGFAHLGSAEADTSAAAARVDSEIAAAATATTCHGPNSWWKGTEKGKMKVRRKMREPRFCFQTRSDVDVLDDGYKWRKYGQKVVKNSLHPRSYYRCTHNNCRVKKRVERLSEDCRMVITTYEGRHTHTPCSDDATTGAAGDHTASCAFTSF

Target: OsWRKY34 (Oryza sativa, UniProt Q0JBA9 1-250)
Test: protein-binding microarray (RPBM); PBS, 2% BSA, 51.3 ng/ul salmon testes DNA, 50 uM zinc acetate, 200 nM TF, 25 C, 1 h; high values mean tight binding
Conditions: protein: recombinant; tags: N-terminal polyhistidine and DsRed monomer fusion (pET32a); label: CyDye5-dUTP incorporated in the synthesized complementary strand; 3' TTTTT single-stranded linker to array surface; dsDNA, one strand shown
How it was run: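 An Axon 4000B scanner gave the binding signal as per-feature fluorescence intensity in arbitrary units. This followed washing of a custom Agilent array that had been incubated for 1 h at 25 °C with 200 nM protein in PBS, 2% BSA, salmon testes DNA and 50 µM zinc acetate. The proteins were transcription factors fused at the N-terminus to polyhistidine and DsRed, expressed in E. coli BL21-CodonPlus and purified on Ni–NTA.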

Row | Sequence | binding signal
1 | TTGTATTTATTCACTCATTGGTTTTATGTACATGTCATATCGGAGTCACCTAGTGCAG | 12500 fluorescence intensity (a.u.)
2 | AGTATCCAATATTCTTGTTGTCTTTCACCTTTTGGTCTAGCGGAGTCACCTAGTGCAG | 11600 fluorescence intensity (a.u.)
3 | TGGGTGGAGATGTGGCGTGCGTGGGGTGGTGGTTGATCTCCGGAGTCACCTAGTGCAG | 12800 fluorescence intensity (a.u.)
4 | CCGCGCGCGTATCCGTGATCTCTCTTTTCCCGCGCTCCTTCGGAGTCACCTAGTGCAG | 8340 fluorescence intensity (a.u.)
5 | AGTCGGGCATTTTTTTTAACCTCAGCATTTATGGGCTTTTCGGAGTCACCTAGTGCAG | 9120 fluorescence intensity (a.u.)
6 | TGCACGCTGTCGTCCCTCTCCCTCTCATTGTTCCATTCATCGGAGTCACCTAGTGCAG | 9480 fluorescence intensity (a.u.)
7 | TCTATTGGGGCGGGGTGTGGTAAGGAAATTACAGTTTGCACGGAGTCACCTAGTGCAG | 17700 fluorescence intensity (a.u.)
8 | TCTATCGTTTATGGATTTAACCACGGTTTCTTTGTCCTTGCGGAGTCACCTAGTGCAG | 8830 fluorescence intensity (a.u.)
9 | TCGTCTGTTCTTGTTATTCTTGGTTTCTTCCGGGTACTGACGGAGTCACCTAGTGCAG | 10300 fluorescence intensity (a.u.)
10 | ATAAGTTTTTCTAGGGGTCTACTTACGAAATAAGTTTTTCCGGAGTCACCTAGTGCAG | 8080 fluorescence intensity (a.u.)
11 | TTATATTTTTTTTGGCCGTATTTCGTAGCGAGAAAATTTTCGGAGTCACCTAGTGCAG | 10400 fluorescence intensity (a.u.)
12 | GAATTATTTGGTCAGTGTCACTTGCTGCCAGGACCCAACACGGAGTCACCTAGTGCAG | 8390 fluorescence intensity (a.u.)
13 | ACCTCTTTTTCTCTTTTTCTCGCTCGCCTCCGTACGCCACCGGAGTCACCTAGTGCAG | 11100 fluorescence intensity (a.u.)
14 | GTGTCCCTTTTGTGTGTTCTTTATTACTATATGTGACAGTCGGAGTCACCTAGTGCAG | 12200 fluorescence intensity (a.u.)
15 | TCTAACATATAGTAGTAGGCTATAATTGCTTTGTTTGTGTCGGAGTCACCTAGTGCAG | 9080 fluorescence intensity (a.u.)
16 | AAACTAAAACGCAACATATATACTCAAACATAACATATTACGGAGTCACCTAGTGCAG | 8140 fluorescence intensity (a.u.)
17 | ATACTTTAAACTGTGTTTGCTTTTGATCACCCGTTTCTGACGGAGTCACCTAGTGCAG | 8520 fluorescence intensity (a.u.)
18 | GGAGGTGGTGGCGCTGCCTCGGGGCCCCTCGCCTGGGAGGCGGAGTCACCTAGTGCAG | 9800 fluorescence intensity (a.u.)
19 | ACCTGGACGCGTCGAACCCGGTGGTGCGGGCGGCGTGGGGCGGAGTCACCTAGTGCAG | 8170 fluorescence intensity (a.u.)
20 | ATAACACCAGTTTGCAATTTAAGTTTCGTGCCTTACTTGTCGGAGTCACCTAGTGCAG | 8830 fluorescence intensity (a.u.)
21 | TTGCTGTTCCCGCTCGCCACACACTTTCGCCTTTCTGACTCGGAGTCACCTAGTGCAG | 11800 fluorescence intensity (a.u.)

Reformatted in markdown: entries from further up

| Row | Sequence | binding signal |
| --- | --- | --- |
| 9 | TCGTCTGTTCTTGTTATTCTTGGTTTCTTCCGGGTACTGACGGAGTCACCTAGTGCAG | 10300 fluorescence intensity (a.u.) |
| 10 | ATAAGTTTTTCTAGGGGTCTACTTACGAAATAAGTTTTTCCGGAGTCACCTAGTGCAG | 8080 fluorescence intensity (a.u.) |
| 12 | GAATTATTTGGTCAGTGTCACTTGCTGCCAGGACCCAACACGGAGTCACCTAGTGCAG | 8390 fluorescence intensity (a.u.) |

More records.

Row | Sequence | binding signal
22 | TCTCTCTCTCTCTCCTACTGTTAGGGTTTGCCTCCTTGCTCGGAGTCACCTAGTGCAG | 11700 fluorescence intensity (a.u.)
23 | TCCCTGTTCTGTCTTTCTTCCTAGGCTTAACTATTTGGGCCGGAGTCACCTAGTGCAG | 9860 fluorescence intensity (a.u.)
24 | TAGTTTTTGCCTACAAGTTTTGTCCATGGTACTGTGTTACCGGAGTCACCTAGTGCAG | 9760 fluorescence intensity (a.u.)
25 | TATGCATCTCCGGATCTCCCCATGAGTTGACCACTACAGTCGGAGTCACCTAGTGCAG | 9890 fluorescence intensity (a.u.)
26 | GGGGACGCAGGAGGAGGTGGGTGGGTCGAGCTCGCTTGCGCGGAGTCACCTAGTGCAG | 15400 fluorescence intensity (a.u.)
27 | GTGTTCGTCGCCGTCCGCGCTCGCTTGTCGCGGTCCCGGCCGGAGTCACCTAGTGCAG | 8090 fluorescence intensity (a.u.)
28 | TAATATATGTTGCCTCTCCTTTCGAATAACCTCATGTCTACGGAGTCACCTAGTGCAG | 8450 fluorescence intensity (a.u.)
29 | ATCTCTCCTTGCCTGCTGTGCTGTCCGTTCGATCGAGCTTCGGAGTCACCTAGTGCAG | 8450 fluorescence intensity (a.u.)
30 | TTGCTTCTATCGGCCCGTTTCCATCTCGCTCTACGCGACTCGGAGTCACCTAGTGCAG | 11500 fluorescence intensity (a.u.)
31 | CCTCGTTAAAACCCGCGTCGTTCTCACACACACTTCCACCCGGAGTCACCTAGTGCAG | 12900 fluorescence intensity (a.u.)
32 | ACTTGTTGACTAACTATTGTTAACTGTTATGCTGTGGTATCGGAGTCACCTAGTGCAG | 8340 fluorescence intensity (a.u.)
33 | GATCCCGTTCCGGTCGCAGCCATCGCCTATCGCGGCGCCGCGGAGTCACCTAGTGCAG | 9790 fluorescence intensity (a.u.)
34 | CGGCGGTCAAACACAAATTTTAACAGAAGGCTACCTTGACCGGAGTCACCTAGTGCAG | 12200 fluorescence intensity (a.u.)
35 | GTAGTGCTGATGTTGTACTGTGTTTTTTTACCCGTTTTATCGGAGTCACCTAGTGCAG | 11500 fluorescence intensity (a.u.)
36 | TACTAAACAAAGCGCGTGCTATCTCTTTCGTTTTGACCACCGGAGTCACCTAGTGCAG | 8770 fluorescence intensity (a.u.)
37 | CTGCCATCGCGTCGGCGTCGCGCCGCTGCCGTTGACCGTGCGGAGTCACCTAGTGCAG | 16700 fluorescence intensity (a.u.)
38 | TAGTACTCCGCCGCCGTGGACCCGGTCTTCCTACACCCCACGGAGTCACCTAGTGCAG | 8500 fluorescence intensity (a.u.)
39 | ACGGTTGTGTATTTCATAGTAGGGTGTAAATGTACGCTGACGGAGTCACCTAGTGCAG | 8030 fluorescence intensity (a.u.)
40 | CTGATTCATTATACTAGGAGGGGTGGGAGGGAGGGAGTACCGGAGTCACCTAGTGCAG | 18800 fluorescence intensity (a.u.)
41 | CGGGCACGTGCCACGACGACGCCCTATCCACCACACTATCCGGAGTCACCTAGTGCAG | 9400 fluorescence intensity (a.u.)
42 | GTATGTTTCGTGAGTAATGCCACTAATATGTGCTGTTATACGGAGTCACCTAGTGCAG | 8040 fluorescence intensity (a.u.)
